Literature values as cited in patent US10865384B2, “2,4,5-tri-substituted azole-based casein kinase 1 inhibitors as inducers for cardiomyogenesis” (AGENCY FOR SCIENCE, TECHNOLOGY AND RESEARCH, priority 2014, dated 2020).

System: PKB phosphorylation
Conditions: cited from earlier work

C[S+]([O-])c1ccc(-c2nc(-c3ccc(F)cc3)c(-c3ccncc3)[nH]2)cc1 (stereo not shown) [SB203580, reference compound]
IC50 (published by companies), PKB phosphorylation: 3 to 5 µM (PKB phosphorylation)
